Laboratory results reported in patent publication US20030162221A1.
No constants are given. Whether binding was seen depends on the method and setting. Binding seen in cells or lysates may run through a third protein. Some results given as binding are weak or reduced against the parent protein; the word gives no strength. Sequences can lack the tags named with a protein.

Columns and labels:
Experiment in all cases: anti-FLAG co-IP, LC-MS/MS
[1] = biological target: T1, Clb2 (Saccharomyces cerevisiae) (UniProt P24869)
T1 sequence (looked up): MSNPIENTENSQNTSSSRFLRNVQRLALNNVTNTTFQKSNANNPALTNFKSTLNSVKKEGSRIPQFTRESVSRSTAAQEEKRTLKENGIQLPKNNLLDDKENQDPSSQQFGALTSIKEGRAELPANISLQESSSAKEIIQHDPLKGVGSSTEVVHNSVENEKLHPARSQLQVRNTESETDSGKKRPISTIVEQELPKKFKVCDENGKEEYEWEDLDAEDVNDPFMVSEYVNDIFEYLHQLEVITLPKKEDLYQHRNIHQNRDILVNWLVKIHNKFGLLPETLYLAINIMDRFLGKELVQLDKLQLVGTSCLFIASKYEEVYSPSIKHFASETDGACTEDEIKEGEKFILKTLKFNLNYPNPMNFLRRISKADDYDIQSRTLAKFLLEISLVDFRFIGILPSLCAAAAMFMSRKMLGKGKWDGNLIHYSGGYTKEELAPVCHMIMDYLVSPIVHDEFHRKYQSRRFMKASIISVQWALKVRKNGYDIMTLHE

[2] = biological target: T2, Hsl7 (Saccharomyces cerevisiae) (UniProt P38274)
T2 sequence (looked up): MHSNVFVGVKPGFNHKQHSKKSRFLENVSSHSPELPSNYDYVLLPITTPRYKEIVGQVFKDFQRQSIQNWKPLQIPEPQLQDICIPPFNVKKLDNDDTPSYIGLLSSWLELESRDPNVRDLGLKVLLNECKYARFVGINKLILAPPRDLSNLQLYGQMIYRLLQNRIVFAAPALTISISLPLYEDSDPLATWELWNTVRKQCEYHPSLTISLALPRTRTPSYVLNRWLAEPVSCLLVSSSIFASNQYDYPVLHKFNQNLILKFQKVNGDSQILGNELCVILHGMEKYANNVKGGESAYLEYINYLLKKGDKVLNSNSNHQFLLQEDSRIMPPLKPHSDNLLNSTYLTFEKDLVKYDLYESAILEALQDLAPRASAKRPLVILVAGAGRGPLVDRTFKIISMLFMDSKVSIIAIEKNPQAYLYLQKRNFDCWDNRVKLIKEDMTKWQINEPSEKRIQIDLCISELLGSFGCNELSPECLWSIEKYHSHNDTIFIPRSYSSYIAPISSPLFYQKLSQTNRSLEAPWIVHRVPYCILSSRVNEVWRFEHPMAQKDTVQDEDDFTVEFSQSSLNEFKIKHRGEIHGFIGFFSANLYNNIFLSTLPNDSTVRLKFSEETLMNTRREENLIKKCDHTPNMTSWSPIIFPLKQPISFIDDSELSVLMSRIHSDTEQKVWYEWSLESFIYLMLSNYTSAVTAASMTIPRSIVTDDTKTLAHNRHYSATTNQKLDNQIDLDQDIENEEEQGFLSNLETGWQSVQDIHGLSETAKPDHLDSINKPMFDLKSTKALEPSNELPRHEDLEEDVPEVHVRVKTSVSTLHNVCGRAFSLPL

[3] = biological target: T3, Kel1 (Saccharomyces cerevisiae) (UniProt P38853)
T3 sequence (looked up): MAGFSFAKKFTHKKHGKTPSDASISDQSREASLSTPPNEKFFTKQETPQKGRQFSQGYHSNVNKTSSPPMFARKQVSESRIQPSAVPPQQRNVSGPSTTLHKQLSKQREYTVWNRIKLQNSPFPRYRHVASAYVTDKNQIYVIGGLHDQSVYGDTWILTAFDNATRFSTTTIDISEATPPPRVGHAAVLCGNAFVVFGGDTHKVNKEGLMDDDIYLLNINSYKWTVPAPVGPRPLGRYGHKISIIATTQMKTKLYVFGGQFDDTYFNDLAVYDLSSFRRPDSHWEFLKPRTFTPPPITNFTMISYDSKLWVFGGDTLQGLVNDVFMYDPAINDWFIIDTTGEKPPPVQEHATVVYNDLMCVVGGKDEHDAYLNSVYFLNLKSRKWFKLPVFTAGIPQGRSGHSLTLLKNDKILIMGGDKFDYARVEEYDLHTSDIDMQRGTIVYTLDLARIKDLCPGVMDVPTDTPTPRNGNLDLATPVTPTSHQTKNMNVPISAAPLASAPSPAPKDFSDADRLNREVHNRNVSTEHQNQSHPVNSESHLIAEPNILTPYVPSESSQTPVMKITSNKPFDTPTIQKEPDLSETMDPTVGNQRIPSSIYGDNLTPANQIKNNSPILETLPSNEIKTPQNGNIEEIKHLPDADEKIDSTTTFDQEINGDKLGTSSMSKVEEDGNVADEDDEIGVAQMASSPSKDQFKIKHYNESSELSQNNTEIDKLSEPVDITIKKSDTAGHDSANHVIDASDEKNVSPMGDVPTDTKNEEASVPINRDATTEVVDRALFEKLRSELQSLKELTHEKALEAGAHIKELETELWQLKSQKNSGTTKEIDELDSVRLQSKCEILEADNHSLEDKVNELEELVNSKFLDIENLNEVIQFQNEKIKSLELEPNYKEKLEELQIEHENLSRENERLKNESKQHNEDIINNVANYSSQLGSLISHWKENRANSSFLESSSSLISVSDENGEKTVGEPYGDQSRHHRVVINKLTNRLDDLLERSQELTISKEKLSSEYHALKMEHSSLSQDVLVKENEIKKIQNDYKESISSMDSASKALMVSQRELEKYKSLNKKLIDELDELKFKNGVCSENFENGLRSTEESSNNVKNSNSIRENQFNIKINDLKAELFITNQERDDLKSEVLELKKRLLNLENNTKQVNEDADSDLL

[4] = biological target: T4, Bfa1 (Saccharomyces cerevisiae) (UniProt P47113)
T4 sequence (looked up): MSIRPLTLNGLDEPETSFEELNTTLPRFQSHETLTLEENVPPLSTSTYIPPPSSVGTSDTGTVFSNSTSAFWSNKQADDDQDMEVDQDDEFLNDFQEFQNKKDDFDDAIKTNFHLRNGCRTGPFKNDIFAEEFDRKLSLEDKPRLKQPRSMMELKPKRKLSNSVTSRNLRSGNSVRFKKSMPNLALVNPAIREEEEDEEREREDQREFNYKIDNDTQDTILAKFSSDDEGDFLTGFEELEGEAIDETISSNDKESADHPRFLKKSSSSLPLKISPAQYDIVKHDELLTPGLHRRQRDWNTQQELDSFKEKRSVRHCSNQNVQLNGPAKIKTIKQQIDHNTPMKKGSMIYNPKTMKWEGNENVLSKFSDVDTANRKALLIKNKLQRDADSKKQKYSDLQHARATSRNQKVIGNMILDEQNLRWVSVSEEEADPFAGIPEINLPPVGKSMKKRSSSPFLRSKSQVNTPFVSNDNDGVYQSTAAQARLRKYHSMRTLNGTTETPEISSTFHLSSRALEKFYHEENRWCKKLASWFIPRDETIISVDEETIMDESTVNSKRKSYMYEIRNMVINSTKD

[5] = biological target: T5, Cdc15 (Saccharomyces cerevisiae) (UniProt P27636)
T5 sequence (looked up): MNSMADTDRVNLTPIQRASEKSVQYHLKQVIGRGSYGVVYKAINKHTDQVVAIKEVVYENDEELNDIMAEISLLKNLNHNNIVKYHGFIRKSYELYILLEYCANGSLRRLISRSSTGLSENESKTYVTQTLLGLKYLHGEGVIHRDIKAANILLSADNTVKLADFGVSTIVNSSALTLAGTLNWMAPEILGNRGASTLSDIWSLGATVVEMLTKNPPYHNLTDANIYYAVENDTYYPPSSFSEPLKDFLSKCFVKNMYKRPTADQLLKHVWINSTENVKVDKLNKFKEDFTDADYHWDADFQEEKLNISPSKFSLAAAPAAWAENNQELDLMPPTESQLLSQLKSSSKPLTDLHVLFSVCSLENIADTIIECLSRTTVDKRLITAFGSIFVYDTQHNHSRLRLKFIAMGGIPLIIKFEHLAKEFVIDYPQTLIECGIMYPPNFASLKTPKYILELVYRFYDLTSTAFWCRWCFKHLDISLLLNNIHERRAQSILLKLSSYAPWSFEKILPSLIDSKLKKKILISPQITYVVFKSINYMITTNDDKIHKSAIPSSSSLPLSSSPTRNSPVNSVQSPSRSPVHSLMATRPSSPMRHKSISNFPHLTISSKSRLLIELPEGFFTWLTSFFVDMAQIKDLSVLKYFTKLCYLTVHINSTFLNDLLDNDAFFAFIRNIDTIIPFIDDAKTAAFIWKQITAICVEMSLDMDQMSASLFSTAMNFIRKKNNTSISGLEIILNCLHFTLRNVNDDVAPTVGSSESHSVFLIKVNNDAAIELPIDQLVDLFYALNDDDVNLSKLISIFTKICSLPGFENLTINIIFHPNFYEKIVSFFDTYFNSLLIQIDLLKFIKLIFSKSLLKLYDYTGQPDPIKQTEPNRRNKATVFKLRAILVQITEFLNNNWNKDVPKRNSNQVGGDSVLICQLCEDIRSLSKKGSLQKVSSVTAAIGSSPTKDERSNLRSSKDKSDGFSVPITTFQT

B1: Swe1 (protein, Saccharomyces cerevisiae, UniProt P32944 1-819, looked up)
chain: MSSLDEDEEDFEMLDTENLQFMGKKMFGKQAGEDESDDFAIGGSTPTNKLKFYPYSNNKLTRSTGTLNLSLSNTALSEANSKFLGKIEEEEEEEEEGKDEESVDSRIKRWSPFHENESVTTPITKRSAEKTNSPISLKQWNQRWFPKNDARTENTSSSSSYSVAKPNQSAFTSSGLVSKMSMDTSLYPAKLRIPETPVKKSPLVEGRDHKHVHLSSSKNASSSLSVSPLNFVEDNNLQEDLLFSDSPSSKALPSIHVPTIDSSPLSEAKYHAHDRHNNQTNILSPTNSLVTNSSPQTLHSNKFKKIKRARNSVILKNRELTNSLQQFKDDLYGTDENFPPPIIISSHHSTRKNPQPYQFRGRYDNDTDEEISTPTRRKSIIGATSQTHRESRPLSLSSAIVTNTTSAETHSISSTDSSPLNSKRRLISSNKLSANPDSHLFEKFTNVHSIGKGQFSTVYQVTFAQTNKKYAIKAIKPNKYNSLKRILLEIKILNEVTNQITMDQEGKEYIIDYISSWKFQNSYYIMTELCENGNLDGFLQEQVIAKKKRLEDWRIWKIIVELSLALRFIHDSCHIVHLDLKPANVMITFEGNLKLGDFGMATHLPLEDKSFENEGDREYIAPEIISDCTYDYKADIFSLGLMIVEIAANVVLPDNGNAWHKLRSGDLSDAGRLSSTDIHSESLFSDITKVDTNDLFDFERDNISGNSNNAGTSTVHNNSNINNPNMNNGNDNNNVNTAATKNRLILHKSSKIPAWVPKFLIDGESLERIVRWMIEPNYERRPTANQILQTEECLYVEMTRNAGAIIQEDDFGPKPKFFI
B1 was tested. Which binding [1] did it give?
Its binding is “binds”.

And the binding [2]?
Its binding is “binds”.

What about the binding [3] of the same binder?
Its binding is “binds”.

B2: Tem1 (protein, Saccharomyces cerevisiae, UniProt P38987 1-245, looked up)
chain: MATPSTGANNSIPAVRNQVEVQVGLVGDAQVGKTSLMVKYVQNIYDKEYTQTLGVNFLKRKVSIRSTDIIFSIMDLGGQREFINMLPIATVGSSVIIFLFDLTRPETLSSIKEWYRQAYGLNDSAIPILVGTKYDLLIDLDPEYQEQISRTSMKYAQVMNAPLIFCSTAKSINIQKIFKIALAKIFNLTLTIPEINEIGDPLLIYKHLGGQQHRHHNKSQDRKSHNIRKPSSSPSSKAPSPGVNT
For B2, which binding [4] is on record?
Its binding is “binds”.

What about the binding [5] of the same binder?
Its binding is “binds”.
